The supplement of paper PMC10849652
The other results are listed elsewhere or left out.

Protein sequences, listed by entry. Tags and fused reporters are not part of them. Lines headed by an entry give the natural chain unless they say otherwise; changes in a name come on top.
UniProt Q4J6C6, whole entry, looked up: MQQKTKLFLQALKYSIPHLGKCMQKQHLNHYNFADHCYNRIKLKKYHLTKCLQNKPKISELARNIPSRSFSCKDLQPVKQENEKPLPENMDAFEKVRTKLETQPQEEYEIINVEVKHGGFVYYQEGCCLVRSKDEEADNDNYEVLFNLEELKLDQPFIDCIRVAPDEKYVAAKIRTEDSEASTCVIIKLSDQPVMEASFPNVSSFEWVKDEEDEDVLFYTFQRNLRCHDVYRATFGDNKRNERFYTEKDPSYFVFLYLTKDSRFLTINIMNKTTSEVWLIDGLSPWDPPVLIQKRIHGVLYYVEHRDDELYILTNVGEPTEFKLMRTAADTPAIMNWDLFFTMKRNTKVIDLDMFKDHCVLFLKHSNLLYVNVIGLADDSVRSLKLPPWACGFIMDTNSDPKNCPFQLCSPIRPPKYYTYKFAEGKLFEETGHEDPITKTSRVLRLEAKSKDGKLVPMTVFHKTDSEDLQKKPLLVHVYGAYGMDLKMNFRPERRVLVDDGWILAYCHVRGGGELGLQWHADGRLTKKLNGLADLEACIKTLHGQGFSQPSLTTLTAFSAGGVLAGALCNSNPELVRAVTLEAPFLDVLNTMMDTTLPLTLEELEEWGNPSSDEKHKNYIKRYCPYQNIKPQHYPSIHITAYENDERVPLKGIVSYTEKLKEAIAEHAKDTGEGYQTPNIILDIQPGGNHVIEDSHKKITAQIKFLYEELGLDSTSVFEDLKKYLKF
UniProt P31321, whole entry, looked up: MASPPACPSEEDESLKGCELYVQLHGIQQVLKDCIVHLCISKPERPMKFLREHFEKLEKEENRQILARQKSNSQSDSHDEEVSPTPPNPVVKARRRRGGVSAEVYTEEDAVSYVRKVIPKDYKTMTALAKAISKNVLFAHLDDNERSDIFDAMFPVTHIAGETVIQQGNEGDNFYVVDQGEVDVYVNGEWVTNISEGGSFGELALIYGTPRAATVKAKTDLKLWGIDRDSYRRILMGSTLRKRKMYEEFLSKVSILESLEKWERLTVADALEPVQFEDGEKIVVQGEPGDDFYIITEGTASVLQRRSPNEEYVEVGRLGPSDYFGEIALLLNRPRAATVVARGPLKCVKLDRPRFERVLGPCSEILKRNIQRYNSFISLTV
UniProt Q5VTL8: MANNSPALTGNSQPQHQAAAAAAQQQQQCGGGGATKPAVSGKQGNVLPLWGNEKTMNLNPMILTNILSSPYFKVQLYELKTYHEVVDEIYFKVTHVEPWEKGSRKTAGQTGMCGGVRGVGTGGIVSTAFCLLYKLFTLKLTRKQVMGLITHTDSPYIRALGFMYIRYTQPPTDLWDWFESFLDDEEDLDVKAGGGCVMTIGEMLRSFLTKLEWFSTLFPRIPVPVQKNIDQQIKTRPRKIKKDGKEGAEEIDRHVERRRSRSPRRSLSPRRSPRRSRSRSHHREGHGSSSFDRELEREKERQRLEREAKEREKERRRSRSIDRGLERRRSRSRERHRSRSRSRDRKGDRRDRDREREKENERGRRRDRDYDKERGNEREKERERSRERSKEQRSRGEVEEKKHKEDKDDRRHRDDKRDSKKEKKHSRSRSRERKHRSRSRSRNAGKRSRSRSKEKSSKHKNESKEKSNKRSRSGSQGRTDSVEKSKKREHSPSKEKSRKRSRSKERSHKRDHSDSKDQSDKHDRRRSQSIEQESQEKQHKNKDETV
UniProt O75400: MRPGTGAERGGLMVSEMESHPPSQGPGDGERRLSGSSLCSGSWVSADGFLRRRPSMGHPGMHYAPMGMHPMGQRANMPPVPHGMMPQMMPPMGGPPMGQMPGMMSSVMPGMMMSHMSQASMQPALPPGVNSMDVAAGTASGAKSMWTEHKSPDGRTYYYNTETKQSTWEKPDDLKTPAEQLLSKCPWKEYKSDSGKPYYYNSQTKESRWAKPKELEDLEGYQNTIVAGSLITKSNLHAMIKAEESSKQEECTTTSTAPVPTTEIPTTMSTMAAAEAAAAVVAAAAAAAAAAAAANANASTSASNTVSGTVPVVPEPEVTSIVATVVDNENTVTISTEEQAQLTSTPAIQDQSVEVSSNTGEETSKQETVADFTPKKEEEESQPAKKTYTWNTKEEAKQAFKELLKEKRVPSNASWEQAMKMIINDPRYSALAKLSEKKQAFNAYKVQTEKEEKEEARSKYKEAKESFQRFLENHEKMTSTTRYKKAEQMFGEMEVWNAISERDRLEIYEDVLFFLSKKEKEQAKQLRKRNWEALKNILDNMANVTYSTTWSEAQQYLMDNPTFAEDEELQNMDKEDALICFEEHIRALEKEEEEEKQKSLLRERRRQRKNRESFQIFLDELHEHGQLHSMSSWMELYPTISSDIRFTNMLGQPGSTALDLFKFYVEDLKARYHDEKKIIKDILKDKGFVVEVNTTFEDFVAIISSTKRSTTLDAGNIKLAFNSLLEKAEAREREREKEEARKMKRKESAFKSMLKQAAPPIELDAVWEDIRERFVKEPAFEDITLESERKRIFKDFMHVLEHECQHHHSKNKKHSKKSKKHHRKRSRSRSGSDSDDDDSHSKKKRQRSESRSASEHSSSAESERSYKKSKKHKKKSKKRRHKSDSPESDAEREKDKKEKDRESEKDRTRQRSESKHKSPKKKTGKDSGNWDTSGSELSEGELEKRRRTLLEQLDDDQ
UniProt Q96SB3: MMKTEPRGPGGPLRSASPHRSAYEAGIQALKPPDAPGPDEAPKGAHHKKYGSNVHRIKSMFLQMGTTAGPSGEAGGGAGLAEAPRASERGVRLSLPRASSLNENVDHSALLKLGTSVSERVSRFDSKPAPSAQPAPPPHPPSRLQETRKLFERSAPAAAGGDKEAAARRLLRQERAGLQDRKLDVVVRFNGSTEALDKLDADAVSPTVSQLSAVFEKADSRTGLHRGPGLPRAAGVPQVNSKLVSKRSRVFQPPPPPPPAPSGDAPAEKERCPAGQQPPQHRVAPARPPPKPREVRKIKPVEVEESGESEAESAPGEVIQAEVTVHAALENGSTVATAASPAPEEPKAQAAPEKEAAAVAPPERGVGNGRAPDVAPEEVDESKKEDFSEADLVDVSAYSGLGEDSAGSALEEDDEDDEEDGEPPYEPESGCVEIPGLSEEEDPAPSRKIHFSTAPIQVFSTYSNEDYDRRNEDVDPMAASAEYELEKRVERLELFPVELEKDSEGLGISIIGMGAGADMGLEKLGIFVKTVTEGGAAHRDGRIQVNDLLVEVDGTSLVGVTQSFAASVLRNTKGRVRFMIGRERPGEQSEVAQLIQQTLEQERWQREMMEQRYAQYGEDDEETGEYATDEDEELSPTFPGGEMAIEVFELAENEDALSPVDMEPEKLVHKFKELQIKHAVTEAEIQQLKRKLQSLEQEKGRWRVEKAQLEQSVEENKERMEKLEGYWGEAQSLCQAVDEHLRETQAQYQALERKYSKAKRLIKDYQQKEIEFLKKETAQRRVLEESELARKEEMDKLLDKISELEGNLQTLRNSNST
UniProt P48454, whole entry, looked up: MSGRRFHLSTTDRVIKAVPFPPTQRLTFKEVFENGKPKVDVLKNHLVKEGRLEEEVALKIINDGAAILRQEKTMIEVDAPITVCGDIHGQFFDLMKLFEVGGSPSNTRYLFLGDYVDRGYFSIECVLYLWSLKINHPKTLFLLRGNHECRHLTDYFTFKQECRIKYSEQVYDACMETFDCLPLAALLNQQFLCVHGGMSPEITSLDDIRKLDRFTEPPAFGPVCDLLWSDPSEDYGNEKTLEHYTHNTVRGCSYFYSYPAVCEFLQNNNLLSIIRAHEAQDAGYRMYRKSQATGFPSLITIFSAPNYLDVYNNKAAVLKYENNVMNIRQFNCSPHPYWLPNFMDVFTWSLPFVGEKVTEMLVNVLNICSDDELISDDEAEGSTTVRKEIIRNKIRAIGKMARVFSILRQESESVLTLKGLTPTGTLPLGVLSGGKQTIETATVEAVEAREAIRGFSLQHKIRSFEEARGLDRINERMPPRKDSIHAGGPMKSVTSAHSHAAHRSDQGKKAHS
UniProt O75688: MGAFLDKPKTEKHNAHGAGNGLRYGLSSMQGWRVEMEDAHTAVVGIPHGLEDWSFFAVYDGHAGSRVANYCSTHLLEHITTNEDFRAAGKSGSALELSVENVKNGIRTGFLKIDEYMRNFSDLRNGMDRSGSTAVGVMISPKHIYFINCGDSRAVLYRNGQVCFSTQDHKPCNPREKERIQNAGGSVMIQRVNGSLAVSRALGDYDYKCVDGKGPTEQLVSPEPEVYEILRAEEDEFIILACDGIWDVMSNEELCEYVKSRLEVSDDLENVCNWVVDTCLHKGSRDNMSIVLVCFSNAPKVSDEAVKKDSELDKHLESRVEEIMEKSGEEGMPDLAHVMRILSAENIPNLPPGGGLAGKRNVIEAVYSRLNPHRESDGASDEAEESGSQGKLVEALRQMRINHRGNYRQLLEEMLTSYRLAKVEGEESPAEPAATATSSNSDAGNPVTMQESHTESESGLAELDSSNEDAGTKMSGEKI
UniProt P62136, whole entry, looked up: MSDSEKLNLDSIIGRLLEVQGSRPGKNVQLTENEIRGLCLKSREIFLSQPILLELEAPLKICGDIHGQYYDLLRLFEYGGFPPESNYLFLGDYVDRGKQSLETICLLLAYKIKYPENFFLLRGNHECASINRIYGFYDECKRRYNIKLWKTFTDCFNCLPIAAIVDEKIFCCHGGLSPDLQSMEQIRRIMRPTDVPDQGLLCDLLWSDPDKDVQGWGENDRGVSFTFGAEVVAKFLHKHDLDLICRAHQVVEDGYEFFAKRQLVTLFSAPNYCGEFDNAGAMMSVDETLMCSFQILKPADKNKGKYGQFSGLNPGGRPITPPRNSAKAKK
UniProt Q9Y570: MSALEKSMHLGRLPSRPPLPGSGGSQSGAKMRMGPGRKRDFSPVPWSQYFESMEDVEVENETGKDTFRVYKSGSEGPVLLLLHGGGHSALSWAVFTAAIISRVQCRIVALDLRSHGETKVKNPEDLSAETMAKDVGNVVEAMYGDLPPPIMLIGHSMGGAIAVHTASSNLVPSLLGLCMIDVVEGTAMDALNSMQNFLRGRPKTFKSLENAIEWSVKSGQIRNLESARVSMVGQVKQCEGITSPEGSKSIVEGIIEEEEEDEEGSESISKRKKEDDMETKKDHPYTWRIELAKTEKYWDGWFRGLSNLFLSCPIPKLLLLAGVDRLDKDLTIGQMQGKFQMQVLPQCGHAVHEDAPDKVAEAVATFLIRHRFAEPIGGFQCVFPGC
UniProt Q8WWY3: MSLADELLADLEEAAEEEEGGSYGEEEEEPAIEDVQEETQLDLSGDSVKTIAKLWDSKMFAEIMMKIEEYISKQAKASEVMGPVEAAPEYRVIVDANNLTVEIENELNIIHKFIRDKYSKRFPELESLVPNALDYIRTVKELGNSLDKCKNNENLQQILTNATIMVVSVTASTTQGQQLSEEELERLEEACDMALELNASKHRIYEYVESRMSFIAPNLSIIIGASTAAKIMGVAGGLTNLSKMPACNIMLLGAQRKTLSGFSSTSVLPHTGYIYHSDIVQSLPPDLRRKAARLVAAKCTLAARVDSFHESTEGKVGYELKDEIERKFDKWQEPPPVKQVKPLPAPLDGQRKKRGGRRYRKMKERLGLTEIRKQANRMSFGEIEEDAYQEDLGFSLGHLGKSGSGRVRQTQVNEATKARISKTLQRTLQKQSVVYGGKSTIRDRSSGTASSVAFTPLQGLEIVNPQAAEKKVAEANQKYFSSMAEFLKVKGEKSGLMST
UniProt Q13131: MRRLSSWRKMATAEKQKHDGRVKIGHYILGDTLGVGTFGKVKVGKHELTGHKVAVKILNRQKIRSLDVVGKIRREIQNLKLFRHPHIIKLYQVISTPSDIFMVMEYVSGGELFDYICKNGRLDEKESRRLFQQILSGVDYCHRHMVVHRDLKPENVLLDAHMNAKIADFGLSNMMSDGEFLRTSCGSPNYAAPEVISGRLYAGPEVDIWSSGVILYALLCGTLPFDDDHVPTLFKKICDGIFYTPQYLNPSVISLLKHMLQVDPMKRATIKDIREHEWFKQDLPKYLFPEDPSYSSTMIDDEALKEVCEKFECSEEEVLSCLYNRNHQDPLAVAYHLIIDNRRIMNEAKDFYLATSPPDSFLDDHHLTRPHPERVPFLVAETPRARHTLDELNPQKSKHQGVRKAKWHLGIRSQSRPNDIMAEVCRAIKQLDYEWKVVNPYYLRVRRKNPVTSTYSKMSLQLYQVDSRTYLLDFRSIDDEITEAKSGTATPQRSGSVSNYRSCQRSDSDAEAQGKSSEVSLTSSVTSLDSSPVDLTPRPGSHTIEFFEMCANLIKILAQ
UniProt Q96LA8, whole entry, looked up: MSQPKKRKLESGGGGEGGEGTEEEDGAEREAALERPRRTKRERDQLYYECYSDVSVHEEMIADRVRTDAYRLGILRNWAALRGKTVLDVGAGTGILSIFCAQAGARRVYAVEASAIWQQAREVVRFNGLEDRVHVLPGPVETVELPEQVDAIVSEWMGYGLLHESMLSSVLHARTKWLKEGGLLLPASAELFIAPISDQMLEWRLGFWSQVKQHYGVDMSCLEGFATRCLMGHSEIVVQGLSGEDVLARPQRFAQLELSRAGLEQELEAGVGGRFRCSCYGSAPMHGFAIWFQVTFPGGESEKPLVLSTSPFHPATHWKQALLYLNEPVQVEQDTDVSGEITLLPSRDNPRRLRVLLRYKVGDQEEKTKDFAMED

Tests used:
Test in all cases: log2 fold change, soluble protein after heating vs DMSO (PISA); higher = thermal stabilisation; K562 lysate, 10 uM; active = over 0.2 and 3.5 SD of the protein, either way, in both replicates (recomputed)
[1] = compound: C1=CC=C(C=C1)[C@H](COC2=CC3=C(C=C2)NC(=O)N3)NC(=O)C4=CC=CN(C4=O)CC5=CC(=C(C=C5)F)F
Procedure, shortened: (§1)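 K562 pellets were dounce-homogenised in PBS pH 7.4 with 1 mM MgCl2, and the crude extract at 1 mg/mL protein was treated with 10 μM compound for 30 min. Aliquots were heated for 3 min across 48°C-58°C, pooled, and brought to 0.5% NP-40 at 4°C; soluble protein was the supernatant after 21,000xg for 90 min. Soluble protein was quantified by TMTpro 16plex LC-MS/MS with channel sums equalised, and reported as log2 fold change in thermal stability against DMSO controls, with values from duplicates.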

[2] = compound: CC1=C(SC2=C1C(=N[C@H](C3=NN=C(N32)C)CC(=O)N)C4=CC=C(C=C4)Cl)C
Procedure, shortened: as §1

[3] = compound: CC1=C2C(=CC=C1)N=C(N(C2=O)C3=CC=CC=C3C)CN4C=NC5=C(N=CN=C54)N
Procedure, shortened: as §1

[4] = compound: Cc1sc2c(c1C)C(c1ccc(Cl)cc1)=N[C@@H](CC(=O)OC(C)(C)C)c1nnc(C)n1-2
Procedure, shortened: as §1

[5] = compound: c1ccc([C@@H]2C[C@H]2NC2CCNCC2)cc1
Procedure, shortened: as §1

Measured: log2 fold change

PRCP (UniProt P42785)
inactive: [1] 0.053 | [2] -0.014 | [3] 0.007 | [4] -0.045 | [5] -0.023

PRDM10 isoform 6 (UniProt Q9NQV6)
inactive: [1] -0.079 | [2] 0.033 | [3] 0.064

PPP2R2D (UniProt Q66LE6)
inactive: [1] -0.064 | [2] 0.034 | [3] -0.024 | [4] 0.102 | [5] 0.056

PPP1R2 (UniProt P41236)
inactive: [1] 0.023 | [2] 0.023 | [3] -0.031 | [4] 0.008 | [5] -0.006

PPP4C (UniProt P60510)
inactive: [1] 0.027 | [2] 0.031 | [3] 0.009 | [4] 0.025 | [5] 0.016

PRKAG1 (UniProt P54619)
inactive: [1] -0.048 | [2] 0.026 | [3] -0.017 | [4] -0.008 | [5] -0.085

PREPL (UniProt Q4J6C6)
inactive: [1] -0.016 | [2] -0.006 | [3] 0.004 | [4] -0.02 | [5] 0.004

PRKAR1B (UniProt P31321)
inactive: [1] 0.015 | [2] 0.024 | [3] -0.069 | [4] 0.173 | [5] 0.063

PRPF38B (UniProt Q5VTL8)
inactive: [1] 0.008 | [2] -0.008 | [3] 0.012 | [4] 0.002 | [5] 0.009

PPIP5K2 (UniProt H0Y9S9)
inactive: [1] 0 | [2] -0.086 | [3] 0.175 | [4] -0.077

PRDX1 (UniProt Q06830)
inactive: [1] 0.031 | [2] -0.019 | [3] -0.015 | [4] -0.019 | [5] -0.067

PROCR (UniProt Q9UNN8)
inactive: [1] -0.004 | [2] 0.009 | [3] 0.016 | [4] 0.05 | [5] -0.003

PRPF40A (UniProt O75400)
inactive: [1] 0.016 | [2] -0.04 | [3] 0.02 | [4] 0.044 | [5] 0.017

PRPF18 (UniProt Q99633)
inactive: [1] -0.003 | [2] -0.016 | [3] 0.008 | [4] 0.06 | [5] 0.015

PRELID1 (UniProt Q9Y255)
inactive: [1] -0.066 | [2] 0.041 | [3] 0.053

PPP1R9B (UniProt Q96SB3)
inactive: [1] 0.039 | [2] 0 | [3] -0.072 | [4] 0.027 | [5] 0.074

PPP1R12A (UniProt O14974)
inactive: [1] 0.008 | [2] -0.006 | [3] 0.024 | [4] 0.003 | [5] 0.005

PPP1R12B isoform 6 (UniProt O60237)
inactive: [1] 0.043 | [2] 0.033 | [3] 0.088 | [4] -0.145

PPIL3 (UniProt Q9H2H8)
inactive: [1] 0.067 | [2] -0.012 | [3] 0.035 | [4] 0.028
active: [5] -0.237

PPP2R3C (UniProt Q969Q6)
inactive: [1] -0.044 | [2] 0.006 | [3] 0.042 | [4] -0.052 | [5] 0.059

PRKAB2 (UniProt O43741)
inactive: [1] 0.1 | [2] -0.012 | [3] 0.009 | [4] -0.047 | [5] -0.418

PRICKLE3 (UniProt O43900)
inactive: [1] -0.039 | [2] -0.055

PROS1 (UniProt P07225)
inactive: [1] 0.008 | [2] -0.007 | [3] 0.001 | [4] -0.008 | [5] -0.037

PRPF3 (UniProt O43395)
inactive: [1] 0.037 | [2] 0.039 | [3] -0.042 | [4] 0.036 | [5] 0.084

PRPF4B (UniProt Q13523)
inactive: [1] 0.097 | [2] -0.01 | [3] 0.014 | [4] 0.02 | [5] 0.001

PPP3CC (UniProt P48454)
inactive: [1] 0.027 | [2] -0.078 | [3] -0.079 | [4] 0.079 | [5] 0.009

PPM1B (UniProt O75688)
inactive: [1] 0.037 | [2] 0.032 | [3] 0.015 | [4] 0.012 | [5] -0.045

PPP1CA (UniProt P62136)
inactive: [1] -0.004 | [2] 0.02 | [3] 0.034 | [4] -0.028 | [5] 0.007

PRKCI (UniProt P41743)
inactive: [1] 0.042 | [2] 0.017 | [3] -0.014 | [4] -0.056 | [5] -0.041

3 records picked at random from those above, as already listed:
PRKAB2 (UniProt O43741)
inactive: [1] 0.1 | [2] -0.012 | [3] 0.009 | [4] -0.047 | [5] -0.418

PRELID1 (UniProt Q9Y255)
inactive: [1] -0.066 | [2] 0.041 | [3] 0.053

PPM1B (UniProt O75688)
inactive: [1] 0.037 | [2] 0.032 | [3] 0.015 | [4] 0.012 | [5] -0.045

(next part)

PPME1 isoform 4 (UniProt Q9Y570)
inactive: [1] -0.004 | [2] 0.013 | [3] -0.019 | [4] 0.021 | [5] 0.007

PPP2R5C isoform 4 (UniProt Q13362)
inactive: [1] -0.057 | [2] 0.003 | [3] 0.021 | [4] -0.103 | [5] 0.021

PPP1R35 (UniProt Q8TAP8)
inactive: [1] 0.003 | [2] -0.016 | [3] -0.041 | [4] 0.059 | [5] -0.052

PPP3CA isoform 2 (UniProt Q08209)
inactive: [1] -0.026 | [2] -0.115 | [3] -0.017 | [4] 0.004 | [5] 0.043

PRMT2 (UniProt P55345)
inactive: [1] -0.031 | [2] 0.037 | [3] 0.123 | [4] -0.032 | [5] -0.005

PRKCSH isoform 2 (UniProt P14314)
inactive: [1] 0.084 | [2] -0.09 | [3] -0.067 | [4] -0.128 | [5] -0.33

PPM1G (UniProt O15355)
inactive: [1] 0.019 | [2] -0.001 | [3] -0.004 | [4] 0.027 | [5] 0.017

PRPF31 (UniProt Q8WWY3)
inactive: [1] 0.075 | [2] -0.023 | [3] -0.015 | [4] 0.01 | [5] 0.028

PPP4R3A (UniProt Q6IN85)
inactive: [1] -0.004 | [2] 0.029 | [3] 0.018 | [4] 0.007 | [5] -0.051

PRMT9 (UniProt Q6P2P2)
inactive: [1] -0.069 | [2] 0.026 | [3] 0.026 | [4] 0.011 | [5] 0

PPP2R5D (UniProt Q14738)
inactive: [1] -0.026 | [2] 0.006 | [3] 0.024 | [4] -0.013 | [5] 0.051

PRKAR1A (UniProt P10644)
inactive: [1] 0.022 | [2] -0.028 | [3] -0.012 | [4] 0.067 | [5] 0.006

PRKRIP1 (UniProt Q9H875)
inactive: [1] -0.013 | [2] 0.008 | [3] 0.005 | [4] -0.006 | [5] 0.016

PRDX5 (UniProt P30044)
inactive: [1] -0.017 | [2] -0.024 | [3] -0.011 | [4] 0 | [5] -0.016

PPIH (UniProt O43447)
inactive: [1] -0.001 | [2] -0.026 | [3] 0.019 | [4] 0.044 | [5] 0.029

PRDX3 (UniProt P30048)
inactive: [1] -0.015 | [2] -0.076 | [3] -0.019 | [4] -0.036 | [5] -0.051

PPP2R5C isoform 2 (UniProt Q13362)
inactive: [1] -0.016 | [2] 0.224 | [3] 0.004 | [4] -0.136 | [5] 0.026

PRDX6 (UniProt P30041)
inactive: [1] -0.001 | [2] -0.003 | [3] 0.003 | [4] 0.007 | [5] 0.03

PRKAA1 isoform 2 (UniProt Q13131)
inactive: [1] 0.007 | [2] -0.032 | [3] -0.016 | [4] 0.028 | [5] -0.036

PPT1 (UniProt P50897)
inactive: [1] -0.022 | [2] -0.001 | [3] -0.017 | [4] 0.016 | [5] 0.076

PPP5C (UniProt P53041)
inactive: [1] 0.012 | [2] 0.026 | [3] -0.006 | [4] -0.045 | [5] -0.082

PREB (UniProt Q9HCU5)
inactive: [1] 0.026 | [2] 0.021 | [3] -0.006 | [4] 0 | [5] -0.015

PRKAR2A (UniProt P13861)
inactive: [1] 0.009 | [2] 0.012 | [3] 0.038 | [4] -0.011 | [5] 0.027

PPP4R3B (UniProt Q5MIZ7)
inactive: [1] -0.008 | [2] -0.007 | [3] -0.01 | [4] -0.017 | [5] -0.003

PRMT6 (UniProt Q96LA8)
inactive: [1] 0.04 | [2] -0.03 | [3] -0.01 | [4] -0.014 | [5] 0.014
